This data set concerns human HL60 cells. As to the kind of experiment: SWATH-MS proteomics, differential protein representation, akirin2 KO vs WT HL60 cells. In kind it is cell-based. How it is done:
Total proteins were extracted from WT and akirin2 KO HL60 cells using the AllPrep DNA/RNA/Protein Mini Kit (Qiagen) and protein concentration was determined using the BCA Protein Assay with BSA (Sigma–Aldrich) as standard. Protein extracts (150 µg per sample, n=3 biological replicates) from each WT and KO cells were trypsin digested using the FASP Protein Digestion Kit (Expedeon Ltd., Abcam, Cambridge, U.K.) and sequencing grade trypsin (Promega, Madison, WI, U.S.A.) following manufacturer’s recommendations. The resulting peptides were finally desalted on to OMIX Pipette tips C18 (Agilent Technologies, Santa Clara, CA, U.S.A.), dried down and stored at −20 °C until mass spectrometry analysis. […] Three micrograms of each protein digest from the three biological replicates of WT and akirin2 KO HL60 cells were used for the generation of the reference spectral ion library as part of the SWATH-MS analysis.
Peptides were eluted in a 120-min gradient from 5 to 30% solvent B in solvent A followed by 15-min gradient from 30 to 60% solvent B in solvent A (solvent A: 0.1% formic acid in water, solvent B: 0.1% formic acid in acetonitrile) and directly injected into the mass spectrometer for analysis. For IDA experiments, the mass spectrometer was set to scanning full spectra (350–1400 m/z) using 250 ms accumulation time per spectrum, followed by up to 50 MS/MS scans (100–1500 m/z). Candidate ions with a charge state between +2 and +5 counts per second above a minimum threshold of 100 were isolated for fragmentation. One MS/MS spectrum was collected for 100 ms, before adding those precursor ions to the exclusion list for 15 s (mass spectrometer operated by Analyst TF 1.6, AB Sciex). Dynamic background subtraction was turned off. MS/MS analyses were recorded in high-sensitivity mode with rolling collision energy on and a collision energy spread of 5. For SWATH quantitative analysis, six independent samples (three replicates from WT and akirin2 KO HL60 cells, 5 µg each) were subjected to the cyclic DIA of mass spectra using the SWATH variable windows calculator (V 1.0, AB Sciex) and the SWATH acquisition method editor (AB Sciex), similar to established methods. […] For these experiments, a 50-ms survey scan (350–1400 m/z) was acquired at the beginning of each cycle, and SWATH–MS/MS spectra were collected from 100–1500 m/z for 70 ms at high-sensitivity mode, resulting in a cycle time of 3.6 s. Collision energy for each window was determined according to the calculation for a charge +2 ion-centered upon the window with a collision energy spread of 15. To create a spectral library of all the detectable peptides in the samples, the IDA MS raw files were combined and subjected to database search in unison using ProteinPilot software v. 5.0.1 (AB Sciex) with the Paragon algorithm. […] The detected protein threshold was set at 0.05. An independent false discovery rate (FDR) analysis, using the target–decoy approach provided by Protein Pilot (AB Sciex; https://sciex.com/products/software/proteinpilot-software), was used to assess the quality of identifications. Positive identifications were considered when identified proteins reached 1% of global FDR. […] Global normalization was performed according to the Total Area Sums (TAS) of all detected proteins in the samples. […] Heatmaps were prepared using the Heatmapper (http://www.heatmapper.ca/expression/) with average linkage and Euclidean distance measurement method.

Setting [1] is: sheet "Over-represented in KO", KO vs WT.
Setting [2] is: akirin2 KO vs WT HL60 cells, SWATH-MS, sheet "Under-represented in KO".

B1: sp¦O75940¦SPF30_HUMAN (protein, UniProt O75940 1-238, looked up)
Survival of motor …: MSEDLAKQLASYKAQLQQVEAALSGNGENEDLLKLKKDLQEVIELTKDLLSTQPSETLASSDSFASTQPTHSWKVGDKCMAVWSEDGQCYEAEIEEIDEENGTAAITFAGYGNAEVTPLLNLKPVEEGRKAKEDSGNKPMSKKEMIAQQREYKKKKALKKAQRIKELEQEREDQKVKWQQFNNRAYSKNKKGQVKRSIFASPESVTGKVGVGTCGIADKPMTQYQDTSKYNVRHLMPQ
For the molecule B1, under setting [1], the “Fold Change” value is 1.083 and the “Log (Fold Change)” value was found to be 0.03446.

B2: sp¦Q99714¦HCD2_HUMAN (protein, UniProt Q99714 2-261, looked up)
3-hydroxyacyl-CoA …: AAACRSVKGLVAVITGGASGLGLATAERLVGQGASAVLLDLPNSGGEAQAKKLGNNCVFAPADVTSEKDVQTALALAKGKFGRVDVAVNCAGIAVASKTYNLKKGQTHTLEDFQRVLDVNLMGTFNVIRLVAGEMGQNEPDQGGQRGVIINTASVAAFEGQVGQAAYSASKGGIVGMTLPIARDLAPIGIRVMTIAPGLFGTPLLTSLPEKVCNFLASQVPFPSRLGDPAEYAHLVQAIIENPFLNGEVIRLDGAIRMQP
For B2, under setting [2], the “Fold Change” value was determined as 0.7961 and the “Log (Fold Change)” value was -0.09905.

B3: sp¦Q16891¦MIC60_HUMAN (protein, UniProt Q16891 34-758, looked up)
MICOS complex subunit MIC60: STSGSSGLTTGKIAGAGLLFVGGGIGGTILYAKWDSHFRESVEKTIPYSDKLFEMVLGPAAYNVPLPKKSIQSGPLKISSVSEVMKESKQPASQLQKQKGDTPASATAPTEAAQIISAAGDTLSVPAPAVQPEESLKTDHPEIGEGKPTPALSEEASSSSIRERPPEEVAARLAQQEKQEQVKIESLAKSLEDALRQTASVTLQAIAAQNAAVQAVNAHSNILKAAMDNSEIAGEKKSAQWRTVEGALKERRKAVDEAADALLKAKEELEKMKSVIENAKKKEVAGAKPHITAAEGKLHNMIVDLDNVVKKVQAAQSEAKVVSQYHELVVQARDDFKRELDSITPEVLPGWKGMSVSDLADKLSTDDLNSLIAHAHRRIDQLNRELAEQKATEKQHITLALEKQKLEEKRAFDSAVAKALEHHRSEIQAEQDRKIEEVRDAMENEMRTQLRRQAAAHTDHLRDVLRVQEQELKSEFEQNLSEKLSEQELQFRRLSQEQVDNFTLDINTAYARLRGIEQAVQSHAVAEEEARKAHQLWLSVEALKYSMKTSSAETPTIPLGSAVEAIKANCSDNEFTQALTAAIPPESLTRGVYSEETLRARFYAVQKLARRVAMIDETRNSLYQYFLSYLQSLLLFPPQQLKPPPELCPEDINTFKLLSYASYCIEHGDLELAAKFVNQLKGESRRVAQDWLKEARMTLETKQIVEILTAYASAVGIGTTQVQPE
Take B3: under setting [2], the “Fold Change” value stood at 0.797 and the “Log (Fold Change)” value is -0.09852.

Values taken from paper PMC8298264, “Function of cofactor Akirin2 in the regulation of gene expression in model human neutrophil-like HL60 cells” (Bioscience Reports, 2021).
